Patent publication US9978954B2, “Benzobis (thiadiazole) derivative, ink comprising same, and organic electronic device comprising same” (UBE INDUSTRIES, LTD., priority 2013, dated 2018)

Assay: Field-effect mobility of organic TFT, organic semiconductor layer by spin-coating
[1] = ink 0.1 wt % in chloroform heated at 60° C., PVP substrate, heated at 180° C. for 35 minutes, drain voltage 100 V
[2] = ink 0.1 wt % in chloroform heated at 60° C., bare substrate, heated at 180° C. for 35 minutes, drain voltage 100 V
[3] = ink 0.1 wt % in chloroform heated at 70° C., PVP substrate, heated at 180° C. for 35 minutes, drain voltage 100 V
[4] = ink 0.1 wt % in chloroform heated at 70° C., bare substrate, heated at 150° C. for 35 minutes, drain voltage 100 V
[5] = ink 0.3 wt % in toluene heated at 100° C., CYC substrate, no annealing, drain voltage 100 V
[6] = ink 0.3 wt % in toluene heated at 100° C., PS substrate, heated at 150° C. for 35 minutes, drain voltage 100 V
[7] = ink 0.3 wt % in toluene heated at 100° C., PVP substrate, heated at 180° C. for 35 minutes, drain voltage 100 V
[8] = ink 0.1 wt % in chloroform prepared at room temperature, CYC substrate, heated at 240° C. for 35 minutes, drain voltage 100 V
[9] = ink 0.1 wt % in chloroform prepared at room temperature, bare substrate, heated at 180° C. for 35 minutes, drain voltage 100 V

Compound: 4,8-bis[5-(4-cyano-3-(2-methylhexyl)phenyl)thiophene-2-yl]benzo[1,2-c:4,5-c′]bis[1,2,5]thiadiazole [Compound (C29)]
- field-effect mobility (μ) [1]: 1.8×10^0 cm^2/Vs
- field-effect mobility (μ) [2]: 2.0×10^0 cm^2/Vs

Compound: CCCCCCCCCCC(F)(F)c1cccc(-c2ccc(-c3c4c(c(-c5ccc(-c6cccc(C(F)(F)CCCCCCCCCC)c6)s5)c5nsnc35)N=S=N4)s2)c1 [Compound (C4), 4,8-bis[5-(3-(1,1-difluoroundecyl)phenyl)thiophene-2-yl]benzo[1,2-c:4,5-c′]bis[1,2,5]thiadiazole]
- field-effect mobility (μ) (ink 0.3 wt % in 1,2-dichlorobenzene heated at 130° C., PS substrate, heated at 180° C. for 35 minutes, drain voltage 100 V): 3.8×10^−1 cm^2/Vs
- field-effect mobility (μ) (ink 0.5 wt % in mesitylene heated at 130° C., CYC substrate, no annealing, drain voltage 100 V): 2.7×10^−1 cm^2/Vs
- field-effect mobility (μ) (ink 0.5 wt % in mesitylene heated at 130° C., PVP substrate, no annealing, drain voltage 100 V): 2.7×10^−1 cm^2/Vs

Compound: CCCCCCc1ccc(-c2ccc(-c3c4c(c(-c5ccc(-c6ccc(CCCCCC)c(C#N)c6)s5)c5nsnc35)N=S=N4)s2)cc1C#N [Compound (C7), 4,8-bis[5-(3-cyano-4-hexylphenyl)thiophene-2-yl]benzo[1,2-c:4,5-c′]bis[1,2,5]thiadiazole]
- field-effect mobility (μ) (ink 0.3 wt % in chloroform heated at 60° C., CYC substrate, heated at 150° C. for 35 minutes, drain voltage 100 V): 9.0×10^−4 cm^2/Vs
- field-effect mobility (μ) (ink 0.3 wt % in chloroform heated at 60° C., PS substrate, heated at 150° C. for 35 minutes, drain voltage 100 V): 1.0×10^−3 cm^2/Vs
- field-effect mobility (μ) (ink 0.3 wt % in chloroform heated at 60° C., PVP substrate, heated at 150° C. for 35 minutes, drain voltage 100 V): 2.5×10^−3 cm^2/Vs
- field-effect mobility (μ) (ink 0.3 wt % in chloroform heated at 60° C., PVP substrate, heated at 180° C. for 35 minutes, drain voltage 100 V): 7.3×10^−3 cm^2/Vs

Compound: CCCCCCc1ccc(-c2ccc(-c3c4c(c(-c5ccc(-c6ccc(CCCCCC)c(C(F)(F)F)c6)s5)c5nsnc35)N=S=N4)s2)cc1C(F)(F)F [Compound (C9), 4,8-bis[5-(4-hexyl-3-(trifluoromethyl)phenyl)thiophene-2-yl]benzo[1,2-c:4,5-c′]bis[1,2,5]thiadiazole]
- field-effect mobility (μ) [3]: 8.9×10^−1 cm^2/Vs
- field-effect mobility (μ) [4]: 5.7×10^−1 cm^2/Vs
- field-effect mobility (μ) (ink 0.3 wt % in xylene heated at 70° C., CYC substrate, no annealing, drain voltage 100 V): 3.1×10^−1 cm^2/Vs
- field-effect mobility (μ) (ink 0.3 wt % in xylene heated at 70° C., PS substrate, no annealing, drain voltage 100 V): 5.1×10^−3 cm^2/Vs
- field-effect mobility (μ) (ink 0.3 wt % in xylene heated at 70° C., PVP substrate, heated at 180° C. for 35 minutes, drain voltage 100 V): 4.8×10^−1 cm^2/Vs

Compound: CCCCCCc1cc(-c2ccc(-c3c4c(c(-c5ccc(-c6ccc(C(F)(F)F)c(CCCCCC)c6)s5)c5nsnc35)N=S=N4)s2)ccc1C(F)(F)F [Compound (C10), 4,8-bis[5-(3-hexyl-4-(trifluoromethyl)phenyl)thiophene-2-yl]benzo[1,2-c:4,5-c′]bis[1,2,5]thiadiazole]
- field-effect mobility (μ) [3]: 4.4×10^0 cm^2/Vs
- field-effect mobility (μ) [4]: 1.4×10^0 cm^2/Vs
- field-effect mobility (μ) (ink 0.3 wt % in xylene heated at 90° C., CYC substrate, no annealing, drain voltage 100 V): 6.0×10^−2 cm^2/Vs
- field-effect mobility (μ) (ink 0.3 wt % in xylene heated at 90° C., PS substrate, heated at 150° C. for 35 minutes, drain voltage 100 V): 1.9×10^−2 cm^2/Vs
- field-effect mobility (μ) (ink 0.3 wt % in xylene heated at 90° C., PVP substrate, heated at 120° C. for 35 minutes, drain voltage 100 V): 3.4×10^−1 cm^2/Vs

Compound: CCCCCCc1ccc(-c2ccc(-c3c4c(c(-c5ccc(-c6ccc(CCCCCC)c(OC(F)(F)F)c6)s5)c5nsnc35)N=S=N4)s2)cc1OC(F)(F)F [Compound (C11), 4,8-bis[5-(4-hexyl-3-(trifluoromethoxy)phenyl)thiophene-2-yl]benzo[1,2-c:4,5-c′]bis[1,2,5]thiadiazole]
- field-effect mobility (μ) [5]: 4.0×10^−1 cm^2/Vs
- field-effect mobility (μ) [6]: 8.5×10^−3 cm^2/Vs
- field-effect mobility (μ) [7]: 8.1×10^−1 cm^2/Vs

Compound: CCCCCCc1cc(-c2ccc(-c3c4c(c(-c5ccc(-c6ccc(OC(F)(F)F)c(CCCCCC)c6)s5)c5nsnc35)N=S=N4)s2)ccc1OC(F)(F)F [Compound (C12)]
- field-effect mobility (μ) [5]: 6.9×10^−2 cm^2/Vs
- field-effect mobility (μ) [6]: 3.5×10^−1 cm^2/Vs
- field-effect mobility (μ) [7]: 2.5×10^0 cm^2/Vs

Compound: CCCCCCCc1cc(-c2ccc(-c3c4c(c(-c5ccc(-c6ccc(C#N)c(CCCCCCC)c6)s5)c5nsnc35)N=S=N4)s2)ccc1C#N [Compound (C13), 4,8-bis[5-(4-cyano-3-heptylphenyl)thiophene-2-yl]benzo[1,2-c:4,5-c′]bis[1,2,5]thiadiazole]
- field-effect mobility (μ) [8]: 1.4×10^0 cm^2/Vs
- field-effect mobility (μ) (ink 0.1 wt % in chloroform prepared at room temperature, PVP substrate, heated at 180° C. for 35 minutes, drain voltage 90 V): 6.8×10^−1 cm^2/Vs
- field-effect mobility (μ) (ink 0.1 wt % in chloroform prepared at room temperature, bare substrate, heated at 240° C. for 35 minutes, drain voltage 100 V): 7.9×10^−1 cm^2/Vs

Compound: CCCCCCCCc1cc(-c2ccc(-c3c4c(c(-c5ccc(-c6ccc(C#N)c(CCCCCCCC)c6)s5)c5nsnc35)N=S=N4)s2)ccc1C#N [Compound (C14), 4,8-bis[5-(4-cyano-3-octylphenyl)thiophene-2-yl]benzo[1,2-c:4,5-c′]bis[1,2,5]thiadiazole]
- field-effect mobility (μ) [8]: 2.0×10^0 cm^2/Vs
- field-effect mobility (μ) (ink 0.1 wt % in chloroform prepared at room temperature, PVP substrate, heated at 180° C. for 35 minutes, drain voltage 80 V): 1.0×10^0 cm^2/Vs
- field-effect mobility (μ) [9]: 8.5×10^−1 cm^2/Vs
- field-effect mobility (μ) (spin-coating and heating in the atmosphere, ink 0.1 wt % in chloroform prepared at room temperature, PVP substrate, heated at 180° C. for 35 minutes, drain voltage 100 V): 6.9×10^−1 cm^2/Vs
- field-effect mobility (μ) (spin-coating and heating in the atmosphere, ink 0.1 wt % in chloroform prepared at room temperature, bare substrate, heated at 180° C. for 35 minutes, drain voltage 100 V): 6.5×10^−1 cm^2/Vs

Compound: CCCCCCCCCc1cc(-c2ccc(-c3c4c(c(-c5ccc(-c6ccc(C#N)c(CCCCCCCCC)c6)s5)c5nsnc35)N=S=N4)s2)ccc1C#N [Compound (C15), 4,8-bis[5-(4-cyano-3-nonylphenyl)thiophene-2-yl]benzo[1,2-c:4,5-c′]bis[1,2,5]thiadiazole]
- field-effect mobility (μ) [8]: 1.1×10^0 cm^2/Vs
- field-effect mobility (μ) (ink 0.1 wt % in chloroform prepared at room temperature, PVP substrate, heated at 180° C. for 35 minutes, drain voltage 100 V): 1.3×10^0 cm^2/Vs
- field-effect mobility (μ) [9]: 1.5×10^0 cm^2/Vs

Compound: CCCCCCCCCCc1cc(-c2ccc(-c3c4c(c(-c5ccc(-c6ccc(C#N)c(CCCCCCCCCC)c6)s5)c5nsnc35)N=S=N4)s2)ccc1C#N [Compound (C16), 4,8-bis[5-(4-cyano-3-decylphenyl)thiophene-2-yl]benzo[1,2-c:4,5-c′]bis[1,2,5]thiadiazole]
- field-effect mobility (μ) (ink 0.1 wt % in chloroform heated at 60° C., CYC substrate, heated at 240° C. for 35 minutes, drain voltage 100 V): 2.4×10^0 cm^2/Vs
- field-effect mobility (μ) [1]: 1.3×10^0 cm^2/Vs
- field-effect mobility (μ) [2]: 1.4×10^0 cm^2/Vs

Compound: CCCCCCCCCCCCCCc1cc(-c2ccc(-c3c4c(c(-c5ccc(-c6ccc(C#N)c(CCCCCCCCCCCCCC)c6)s5)c5nsnc35)N=S=N4)s2)ccc1C#N [Compound (C18), 4,8-bis[5-(4-cyano-3-tetradecylphenyl)thiophene-2-yl]benzo[1,2-c:4,5-c′]bis[1,2,5]thiadiazole]
- field-effect mobility (μ) (ink 0.1 wt % in chloroform heated at 70° C., PVP substrate, heated at 180° C. for 35 minutes, drain voltage 30 V): 2.1×10^0 cm^2/Vs
- field-effect mobility (μ) (ink 0.1 wt % in chloroform heated at 70° C., bare substrate, heated at 120° C. for 35 minutes, drain voltage 50 V): 1.5×10^0 cm^2/Vs

Compound: CCCCCCCCCCCCCCCCc1cc(-c2ccc(-c3c4c(c(-c5ccc(-c6ccc(C#N)c(CCCCCCCCCCCCCCCC)c6)s5)c5nsnc35)N=S=N4)s2)ccc1C#N [Compound (C19), 4,8-bis[5-(4-cyano-3-hexadecylphenyl)thiophene-2-yl]benzo[1,2-c:4,5-c′]bis[1,2,5]thiadiazole]
- field-effect mobility (μ) (ink 0.1 wt % in chloroform heated at 70° C., PVP substrate, heated at 120° C. for 35 minutes, drain voltage 60 V): 2.9×10^0 cm^2/Vs
- field-effect mobility (μ) (ink 0.1 wt % in chloroform heated at 70° C., bare substrate, heated at 180° C. for 35 minutes, drain voltage 60 V): 2.2×10^0 cm^2/Vs

Compound: CCCCCCCCCCCCCCCCCCc1cc(-c2ccc(-c3c4c(c(-c5ccc(-c6ccc(C#N)c(CCCCCCCCCCCCCCCCCC)c6)s5)c5nsnc35)N=S=N4)s2)ccc1C#N [Compound (C20), 4,8-bis[5-(4-cyano-3-octadecylphenyl)thiophene-2-yl]benzo[1,2-c:4,5-c′]bis[1,2,5]thiadiazole]
- field-effect mobility (μ) (ink 0.1 wt % in chloroform heated at 70° C., PVP substrate, heated at 180° C. for 35 minutes, drain voltage 40 V): 3.0×10^0 cm^2/Vs
- field-effect mobility (μ) (ink 0.1 wt % in chloroform heated at 70° C., bare substrate, heated at 120° C. for 35 minutes, drain voltage 80 V): 2.3×10^0 cm^2/Vs

Compound: CCCC(C)CCc1cc(-c2ccc(-c3c4c(c(-c5ccc(-c6ccc(C#N)c(CCC(C)CCC)c6)s5)c5nsnc35)N=S=N4)s2)ccc1C#N (centres unmarked) [Compound (C21), 4,8-bis[5-(4-cyano-3-(3-methylhexyl)phenyl)thiophene-2-yl]benzo[1,2-c:4,5-c′]bis[1,2,5]thiadiazole]
- field-effect mobility (μ) (ink 0.1 wt % in chloroform prepared at room temperature, PVP substrate, heated at 120° C. for 35 minutes, drain voltage 100 V): 8.0×10^−1 cm^2/Vs
- field-effect mobility (μ) (ink 0.1 wt % in chloroform prepared at room temperature, bare substrate, heated at 120° C. for 35 minutes, drain voltage 100 V): 6.1×10^−1 cm^2/Vs
